Values quoted from earlier work, collected in patent US20180169108A1, “Drug Combinations For the Treatment of HIV” (The Johns Hopkins University, priority 2015, published 2018).
At least one structure is not confirmed: it was looked up by name or label, or the drawing left a doubt.

Tested on: HIV-1 (latent, in resting CD4+ T cells from infected individuals)
Details: earlier study (32); cited from earlier work

In the case of `Cc1[nH]c2ccccc2c1CCNCc1ccc(/C=C/C(=O)NO)cc1` [panobinostat], the “viral production ex vivo (in words)” value is given as “fail to stimulate detectable viral production”.
